For at least one compound, name, drawing or mass did not settle the structure.
Experiments:
[1] = tested on: Janthinobacterium lividum strains; assay: Internal antibiotic resistance tests (BD BBL Sensi-Disc, zone of inhibition); format: cell-based; details: all 5 strains; disc content per antibiotic (e.g. penicillin 10 IU); FIG. 5
Protocol: One Janthinobacterium lividum colony of 3-day old grown in 50% BHI agar was mixed well in 1 ml of 1×PBS buffer, diluted 10× and 100×, respectively. 200 μl of diluted Janthinobacterium lividum cells were evenly plated onto R2A/BHI agar plates in triplicate in 150 mm petri dishes. Antibiotic discs (BD BBL Sensi-Disc antimicrobial susceptibility test discs) were dispensed using a Disc dispenser (BD BBL Sensi-Disc Designer Dispenser System, 12-Place). Plates were incubated for 2-3 days at room temperature and imaged at the end of incubation.
The sensitivity of Janthinobacterium lividum to antibiotics is reflected by a clear zone of inhibition of Janthinobacterium lividum cells surrounding the antibiotic discs. The zone of inhibition was measured using ImageJ and was transformed into cm for analysis.

[2] = tested on: E. Coli ATCC25922; details: cited from earlier work
[3] = tested on: Janthinobacterium lividum strains; assay: Antibiotic MIC tests, resistance profile in words; format: cell-based; details: Table 7 and 8
Protocol: The antibiotic resistance profile and MICs tests were performed using Janthinobacterium lividum grown from cultures purified and grown in vegitone LB broth.

Structure (SMILES)	sensitivity of Janthinobacterium lividum to antibiotic discs [1]	MIC, CLSI QC ranges [2] [µg/mL]	sensitivity of Janthinobacterium lividum strains to antibiotics [3]
CN(C)[C@@H]1C(O)=C(C(N)=O)C(=O)[C@@]2(O)C(O)=C3C(=O)c4c(O)cccc4[C@@](C)(O)[C@H]3C[C@@H]12 [Tetracycline]	sensitive	0.5 to 2	–
C[C@H]1c2cccc(O)c2C(=O)C2=C(O)[C@]3(O)C(=O)C(C(N)=O)=C(O)[C@@H](N(C)C)[C@@H]3[C@@H](O)[C@@H]21 [doxycycline]	sensitive	–	–
CCC[C@@H]1C[C@@H](C(=O)N[C@@H]([C@H]2O[C@H](SC)[C@H](O)[C@@H](O)[C@H]2O)[C@H](C)Cl)N(C)C1 [Clindamycin]	–	–	less sensitive

Reference: patent US12064459B2, “Compositions and methods for improving skin health and for the treatment and prevention of diseases, disorders and conditions associated with pathogenic microbes” (priority 2019, dated 2024)
